Results deposited as PubChem BioAssay AID1224828 (NIAID, 2016).
Here is an unselected part of about 17,000 deposited reagents. In the full data, 762 (4.5%) got an active call. 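Active calls include both raised and lowered p65 entry, mostly lowered; wells with fewer than 50 cells lack a z-score.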 Raw values vary from plate to plate and are shown uncorrected. Unmarked entries are inactive. A reagent listed more than once was tested more than once; the source does not tell the runs apart.

Aim: 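Knock-downs that increase or decrease LPS-induced p65 nuclear translocation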 (primary screen)
System: mouse RAW264.7 G9 macrophage reporter cells (GFP-p65, Tnf promoter-mCherry)
Reagents: siRNA pool against mouse genes, 100 nM
Time to read-out: 2 days siRNA transfection, then 40 min LPS before fixation
Challenge: LPS (Salmonella minnesota R595) at 10 ng/ml
Measured: 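Microscopy ratio of nuclear to perinuclear-ring GFP-p65 signal, scaled to the plate median; gene score is the average of two replicate robust z-scores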
Direction: p65 translocation robust z-score: higher = more nuclear NF-kappaB p65 after LPS than the plate median; nuclear/cytoplasmic p65 ratio: higher = more nuclear NF-kappaB p65
Active means: 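Called active when z exceeds 3.3 or falls under -1.56 (median of Tlr4 controls), giving activity score of at least 50; no calls for control wells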
Meaning of the calls: active = hit (p65 shift raised or lowered); inactive = no clear change

gene knocked down | p65 translocation robust z-score | nuclear/cytoplasmic p65 ratio, rep 1 | nuclear/cytoplasmic p65 ratio, rep 2 | low cell count flag
Cpeb3 | 0.05 | 1.73 | 1.63 | enough cells to score
Gpr61 | -2.56 (active) | 1.08 | 1.28 | enough cells to score
Zfp219 | -0.74 | 1.3 | 1.18 | enough cells to score
Or5b21 | – | 1.43 | 1.28 | fewer than 50 cells per well; well left out of scoring
Scyl3 | 0.96 | 1.69 | 1.51 | enough cells to score
Scyl3 | – | 1.14 | 1.24 | fewer than 50 cells per well; well left out of scoring
Gatd3a | 0.45 | 1.59 | 1.92 | enough cells to score
Ptprv | 0.85 | 1.49 | 1.27 | enough cells to score
Nudt22 | -0.49 | 1.37 | 1.48 | enough cells to score
Gpat3 | 0.85 | 1.37 | 1.4 | enough cells to score
Ccser1 | -0.11 | 1.27 | 1.53 | enough cells to score
Smg8 | – | 1.34 | 1.22 | fewer than 50 cells per well; well left out of scoring
Hemk2 | 0.63 | 1.44 | 1.55 | enough cells to score
Acot5 | -0.03 | 1.57 | 1.84 | enough cells to score
Bst2 | – | 1.37 | 1.35 | fewer than 50 cells per well; well left out of scoring
Zfp113 | – | 1.51 | 1.31 | fewer than 50 cells per well; well left out of scoring
Uba5 | – | 1.34 | 1.15 | fewer than 50 cells per well; well left out of scoring
Rps4l | -1.73 (active) | 1.26 | 1.25 | enough cells to score
Patj | -0.59 | 1.45 | 1.74 | enough cells to score
Irf8 | -0.98 | 1.32 | 1.24 | enough cells to score
Cadm2 | -1.34 | 1.35 | 1.26 | enough cells to score
Spsb1 | – | 1.12 | 1.07 | fewer than 50 cells per well; well left out of scoring
Glg1 | -0.62 | 1.38 | 1.27 | enough cells to score
Faf2 | – | 1.36 | 1.62 | fewer than 50 cells per well; well left out of scoring
Rab6b | – | 1.64 | 1.51 | fewer than 50 cells per well; well left out of scoring
Zfp513 | 0.56 | 1.47 | 1.32 | enough cells to score
Rabepk | -0.55 | 1.51 | 1.55 | enough cells to score
Pttg1ip | 0.07 | 1.6 | 1.45 | enough cells to score
Aldh4a1 | – | 1.15 | 1.26 | fewer than 50 cells per well; well left out of scoring
Gak | -0.13 | 1.7 | 1.35 | enough cells to score
Pdha2 | -0.67 | 1.36 | 1.16 | enough cells to score
Angptl6 | 1.86 | 1.94 | 1.91 | enough cells to score
Fktn | 1.1 | 1.63 | 1.49 | enough cells to score
Pfdn1 | 0.17 | 1.51 | 1.4 | enough cells to score
Mypop | – | 1.18 | 1.16 | fewer than 50 cells per well; well left out of scoring
Dync1h1 | 1.27 | 1.49 | 1.52 | enough cells to score
Nol4 | -0.13 | 1.7 | 1.47 | enough cells to score
Snrnp200 | -0.83 | 1.47 | 1.51 | enough cells to score
Matn2 | -1.21 | 1.52 | 1.37 | enough cells to score
Sepsecs | -1.02 | 1.29 | 1.53 | enough cells to score
Lrit1 | -0.36 | 1.67 | 1.48 | enough cells to score
Tinag | -1.15 | 1.16 | 1.12 | enough cells to score
Sox10 | 0.06 | 1.56 | 1.56 | enough cells to score
Art2b | 0.6 | 1.6 | 1.69 | enough cells to score
Vdac3 | – | 1.19 | 1.08 | fewer than 50 cells per well; well left out of scoring
Lpar1 | – | 1.61 | 1.6 | fewer than 50 cells per well; well left out of scoring
Gfus | – | 1.22 | 1 | fewer than 50 cells per well; well left out of scoring
Pcdhb8 | – | 1.1 | 1.33 | fewer than 50 cells per well; well left out of scoring
Tuba1c | – | 1.92 | 1.34 | fewer than 50 cells per well; well left out of scoring
Ncald | -0.53 | 1.64 | 1.56 | enough cells to score
Hebp2 | 1.16 | 2 | 1.55 | enough cells to score
Or1e29 | -1.11 | 1.35 | 1.36 | enough cells to score
Armc2 | – | 1.19 | 1.46 | fewer than 50 cells per well; well left out of scoring
Pycard | 0.32 | 1.65 | 1.67 | enough cells to score
Zfp516 | 0.74 | 1.44 | 1.72 | enough cells to score
Or5p76 | -1.6 (active) | 1.23 | 1.24 | enough cells to score
Tubgcp4 | -0.09 | 1.41 | 1.4 | enough cells to score
Ptpn6 | -1.14 | 1.36 | 1.4 | enough cells to score
Grk4 | 0.57 | 1.86 | 1.39 | enough cells to score
Grk4 | 1.8 | 1.68 | 1.93 | enough cells to score

Sorted by “nuclear/cytoplasmic p65 ratio, rep 2” (highest first): some entries from above.
gene knocked down | p65 translocation robust z-score | nuclear/cytoplasmic p65 ratio, rep 1 | nuclear/cytoplasmic p65 ratio, rep 2 | low cell count flag
Gatd3a | 0.45 | 1.59 | 1.92 | enough cells to score
Scyl3 | 0.96 | 1.69 | 1.51 | enough cells to score
Or5b21 | – | 1.43 | 1.28 | fewer than 50 cells per well; well left out of scoring
Scyl3 | – | 1.14 | 1.24 | fewer than 50 cells per well; well left out of scoring
Zfp219 | -0.74 | 1.3 | 1.18 | enough cells to score
